Compound in this assay: CN[C@@H]1C[C@H]2O[C@@](C)([C@@H]1OC)n1c3ccccc3c3c4c(c5c6ccccc6n2c5c31)C(=O)NC4 [staurosporine]
Put plainly: log2 fold change of tryptic peptide abundance, ligand vs vehicle (limited proteolysis) (log2 ratio); higher = more trypsin-susceptible (destabilized). To be noted: ligand concentration: 20 uM; sample: mouse liver crude lysate; replicate design: treated separately.

Amino acid sequences for entries named in this document (tags omitted). A change or cut given only in a name is not applied to a line headed by its entry.
UniProt P62869, whole entry: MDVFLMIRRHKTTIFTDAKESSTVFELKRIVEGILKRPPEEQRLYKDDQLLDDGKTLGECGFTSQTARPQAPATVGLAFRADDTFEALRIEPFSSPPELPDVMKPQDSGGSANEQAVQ
UniProt P60334: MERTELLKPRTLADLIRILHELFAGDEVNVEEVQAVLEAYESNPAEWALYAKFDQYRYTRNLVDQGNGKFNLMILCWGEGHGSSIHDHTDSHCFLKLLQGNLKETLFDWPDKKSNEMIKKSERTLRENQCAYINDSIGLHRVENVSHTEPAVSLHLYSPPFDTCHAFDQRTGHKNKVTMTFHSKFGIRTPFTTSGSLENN
UniProt P62484: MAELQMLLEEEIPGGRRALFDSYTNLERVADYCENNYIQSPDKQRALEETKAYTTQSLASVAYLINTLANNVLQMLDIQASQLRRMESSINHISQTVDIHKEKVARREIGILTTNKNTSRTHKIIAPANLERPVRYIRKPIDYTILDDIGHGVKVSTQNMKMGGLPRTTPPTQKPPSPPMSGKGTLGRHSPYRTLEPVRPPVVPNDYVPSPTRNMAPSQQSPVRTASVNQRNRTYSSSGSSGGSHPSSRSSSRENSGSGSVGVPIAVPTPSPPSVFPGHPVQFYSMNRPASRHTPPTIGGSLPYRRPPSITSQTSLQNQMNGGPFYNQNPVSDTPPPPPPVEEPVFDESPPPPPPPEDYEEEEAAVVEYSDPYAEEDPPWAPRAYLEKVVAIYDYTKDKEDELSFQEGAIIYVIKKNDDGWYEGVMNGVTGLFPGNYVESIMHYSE
UniProt P54751: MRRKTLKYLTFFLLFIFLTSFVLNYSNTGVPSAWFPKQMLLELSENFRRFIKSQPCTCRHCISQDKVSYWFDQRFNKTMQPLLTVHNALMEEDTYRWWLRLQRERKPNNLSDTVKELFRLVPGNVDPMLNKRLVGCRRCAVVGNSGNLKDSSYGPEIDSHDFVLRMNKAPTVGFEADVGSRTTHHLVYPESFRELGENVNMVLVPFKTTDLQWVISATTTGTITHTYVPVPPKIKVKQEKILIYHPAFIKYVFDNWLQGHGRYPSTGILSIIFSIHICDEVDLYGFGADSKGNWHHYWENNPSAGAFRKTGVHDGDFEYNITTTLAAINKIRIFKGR
UniProt P59997: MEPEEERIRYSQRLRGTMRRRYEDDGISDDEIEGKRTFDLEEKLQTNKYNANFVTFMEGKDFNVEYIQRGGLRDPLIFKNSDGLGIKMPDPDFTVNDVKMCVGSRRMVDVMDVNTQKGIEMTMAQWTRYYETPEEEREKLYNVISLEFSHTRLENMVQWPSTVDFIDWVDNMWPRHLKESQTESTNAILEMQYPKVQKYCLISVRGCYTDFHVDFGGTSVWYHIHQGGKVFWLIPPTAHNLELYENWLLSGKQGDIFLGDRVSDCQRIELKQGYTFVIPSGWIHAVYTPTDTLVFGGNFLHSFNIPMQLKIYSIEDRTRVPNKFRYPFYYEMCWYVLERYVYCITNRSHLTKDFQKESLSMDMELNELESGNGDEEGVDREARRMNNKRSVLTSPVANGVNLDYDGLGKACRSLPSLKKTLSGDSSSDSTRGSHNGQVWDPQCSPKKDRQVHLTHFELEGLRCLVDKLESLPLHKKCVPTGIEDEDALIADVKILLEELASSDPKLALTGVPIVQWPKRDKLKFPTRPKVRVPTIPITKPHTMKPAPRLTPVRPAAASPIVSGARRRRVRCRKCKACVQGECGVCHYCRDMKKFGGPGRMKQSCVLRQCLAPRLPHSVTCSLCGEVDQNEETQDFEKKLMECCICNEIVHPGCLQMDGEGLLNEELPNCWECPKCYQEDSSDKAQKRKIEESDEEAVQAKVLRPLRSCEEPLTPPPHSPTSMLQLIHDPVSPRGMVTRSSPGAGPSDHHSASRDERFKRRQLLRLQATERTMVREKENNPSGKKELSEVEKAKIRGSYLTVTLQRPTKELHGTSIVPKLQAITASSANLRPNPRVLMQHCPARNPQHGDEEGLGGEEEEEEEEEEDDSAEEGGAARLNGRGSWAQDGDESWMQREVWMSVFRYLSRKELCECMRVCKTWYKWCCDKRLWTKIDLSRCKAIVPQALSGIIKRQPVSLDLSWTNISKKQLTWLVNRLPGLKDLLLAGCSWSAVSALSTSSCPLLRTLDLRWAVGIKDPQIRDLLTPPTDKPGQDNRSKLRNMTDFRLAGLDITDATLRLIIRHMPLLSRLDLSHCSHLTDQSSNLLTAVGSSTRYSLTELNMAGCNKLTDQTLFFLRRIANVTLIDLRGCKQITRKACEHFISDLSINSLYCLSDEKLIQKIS
UniProt P56384: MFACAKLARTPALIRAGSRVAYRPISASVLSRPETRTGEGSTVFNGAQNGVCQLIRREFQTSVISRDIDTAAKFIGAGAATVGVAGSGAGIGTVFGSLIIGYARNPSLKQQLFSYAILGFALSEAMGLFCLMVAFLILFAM
UniProt P56390, whole entry: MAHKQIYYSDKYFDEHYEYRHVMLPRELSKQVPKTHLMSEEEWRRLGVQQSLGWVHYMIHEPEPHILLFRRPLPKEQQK
UniProt P54320: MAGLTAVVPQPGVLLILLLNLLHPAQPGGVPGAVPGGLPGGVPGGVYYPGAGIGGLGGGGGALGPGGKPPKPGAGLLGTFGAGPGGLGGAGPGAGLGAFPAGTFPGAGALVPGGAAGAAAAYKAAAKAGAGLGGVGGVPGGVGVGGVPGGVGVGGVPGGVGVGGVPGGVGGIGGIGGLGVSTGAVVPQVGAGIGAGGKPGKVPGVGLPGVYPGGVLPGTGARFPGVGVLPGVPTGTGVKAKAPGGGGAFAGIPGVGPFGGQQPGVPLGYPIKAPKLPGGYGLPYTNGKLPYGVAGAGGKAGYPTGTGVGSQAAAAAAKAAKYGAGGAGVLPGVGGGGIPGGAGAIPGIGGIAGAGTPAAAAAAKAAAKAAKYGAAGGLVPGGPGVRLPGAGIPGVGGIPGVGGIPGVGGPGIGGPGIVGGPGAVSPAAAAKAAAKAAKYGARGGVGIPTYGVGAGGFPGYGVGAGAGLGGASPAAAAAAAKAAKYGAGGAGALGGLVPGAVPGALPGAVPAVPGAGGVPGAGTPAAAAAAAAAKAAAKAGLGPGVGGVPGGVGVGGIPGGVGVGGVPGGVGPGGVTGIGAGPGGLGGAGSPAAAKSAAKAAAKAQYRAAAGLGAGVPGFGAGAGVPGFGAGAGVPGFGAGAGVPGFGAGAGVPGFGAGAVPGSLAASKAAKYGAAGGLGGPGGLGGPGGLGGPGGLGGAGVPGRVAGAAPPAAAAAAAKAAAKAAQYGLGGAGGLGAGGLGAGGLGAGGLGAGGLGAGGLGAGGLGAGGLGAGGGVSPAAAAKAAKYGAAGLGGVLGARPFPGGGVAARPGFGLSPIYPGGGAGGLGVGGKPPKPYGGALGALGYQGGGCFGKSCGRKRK
UniProt P59913: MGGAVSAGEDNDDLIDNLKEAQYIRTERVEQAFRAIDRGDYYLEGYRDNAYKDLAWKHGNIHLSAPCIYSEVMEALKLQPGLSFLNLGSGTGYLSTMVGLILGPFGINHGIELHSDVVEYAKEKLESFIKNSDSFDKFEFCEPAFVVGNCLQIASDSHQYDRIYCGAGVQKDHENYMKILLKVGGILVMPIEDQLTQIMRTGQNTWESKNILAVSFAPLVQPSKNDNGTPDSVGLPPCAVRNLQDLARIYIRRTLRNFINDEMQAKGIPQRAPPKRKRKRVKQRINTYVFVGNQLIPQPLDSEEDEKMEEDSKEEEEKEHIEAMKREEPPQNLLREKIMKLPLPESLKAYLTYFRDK
UniProt P63030: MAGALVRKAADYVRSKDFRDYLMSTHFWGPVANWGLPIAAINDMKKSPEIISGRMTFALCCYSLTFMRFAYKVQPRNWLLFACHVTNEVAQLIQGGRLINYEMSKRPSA
UniProt P63101: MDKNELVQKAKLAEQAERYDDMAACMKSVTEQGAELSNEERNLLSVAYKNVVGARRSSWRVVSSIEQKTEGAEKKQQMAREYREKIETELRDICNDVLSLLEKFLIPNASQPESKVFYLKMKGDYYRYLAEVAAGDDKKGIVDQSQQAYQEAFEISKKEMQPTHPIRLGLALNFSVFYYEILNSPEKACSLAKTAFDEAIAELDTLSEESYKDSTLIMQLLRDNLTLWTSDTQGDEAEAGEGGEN
UniProt P54822: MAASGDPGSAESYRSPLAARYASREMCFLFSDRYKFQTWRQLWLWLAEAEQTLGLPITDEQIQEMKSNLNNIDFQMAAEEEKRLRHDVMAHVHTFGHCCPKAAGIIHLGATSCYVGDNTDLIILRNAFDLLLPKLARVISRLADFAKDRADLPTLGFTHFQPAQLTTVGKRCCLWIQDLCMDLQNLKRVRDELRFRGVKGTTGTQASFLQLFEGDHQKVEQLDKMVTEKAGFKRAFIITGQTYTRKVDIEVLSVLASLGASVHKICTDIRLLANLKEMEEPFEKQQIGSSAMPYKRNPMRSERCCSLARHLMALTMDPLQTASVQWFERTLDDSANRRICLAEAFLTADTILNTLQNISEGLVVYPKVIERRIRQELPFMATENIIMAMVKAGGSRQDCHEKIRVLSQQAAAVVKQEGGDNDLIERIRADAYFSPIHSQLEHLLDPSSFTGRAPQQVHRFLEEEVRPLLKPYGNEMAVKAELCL
UniProt P61406: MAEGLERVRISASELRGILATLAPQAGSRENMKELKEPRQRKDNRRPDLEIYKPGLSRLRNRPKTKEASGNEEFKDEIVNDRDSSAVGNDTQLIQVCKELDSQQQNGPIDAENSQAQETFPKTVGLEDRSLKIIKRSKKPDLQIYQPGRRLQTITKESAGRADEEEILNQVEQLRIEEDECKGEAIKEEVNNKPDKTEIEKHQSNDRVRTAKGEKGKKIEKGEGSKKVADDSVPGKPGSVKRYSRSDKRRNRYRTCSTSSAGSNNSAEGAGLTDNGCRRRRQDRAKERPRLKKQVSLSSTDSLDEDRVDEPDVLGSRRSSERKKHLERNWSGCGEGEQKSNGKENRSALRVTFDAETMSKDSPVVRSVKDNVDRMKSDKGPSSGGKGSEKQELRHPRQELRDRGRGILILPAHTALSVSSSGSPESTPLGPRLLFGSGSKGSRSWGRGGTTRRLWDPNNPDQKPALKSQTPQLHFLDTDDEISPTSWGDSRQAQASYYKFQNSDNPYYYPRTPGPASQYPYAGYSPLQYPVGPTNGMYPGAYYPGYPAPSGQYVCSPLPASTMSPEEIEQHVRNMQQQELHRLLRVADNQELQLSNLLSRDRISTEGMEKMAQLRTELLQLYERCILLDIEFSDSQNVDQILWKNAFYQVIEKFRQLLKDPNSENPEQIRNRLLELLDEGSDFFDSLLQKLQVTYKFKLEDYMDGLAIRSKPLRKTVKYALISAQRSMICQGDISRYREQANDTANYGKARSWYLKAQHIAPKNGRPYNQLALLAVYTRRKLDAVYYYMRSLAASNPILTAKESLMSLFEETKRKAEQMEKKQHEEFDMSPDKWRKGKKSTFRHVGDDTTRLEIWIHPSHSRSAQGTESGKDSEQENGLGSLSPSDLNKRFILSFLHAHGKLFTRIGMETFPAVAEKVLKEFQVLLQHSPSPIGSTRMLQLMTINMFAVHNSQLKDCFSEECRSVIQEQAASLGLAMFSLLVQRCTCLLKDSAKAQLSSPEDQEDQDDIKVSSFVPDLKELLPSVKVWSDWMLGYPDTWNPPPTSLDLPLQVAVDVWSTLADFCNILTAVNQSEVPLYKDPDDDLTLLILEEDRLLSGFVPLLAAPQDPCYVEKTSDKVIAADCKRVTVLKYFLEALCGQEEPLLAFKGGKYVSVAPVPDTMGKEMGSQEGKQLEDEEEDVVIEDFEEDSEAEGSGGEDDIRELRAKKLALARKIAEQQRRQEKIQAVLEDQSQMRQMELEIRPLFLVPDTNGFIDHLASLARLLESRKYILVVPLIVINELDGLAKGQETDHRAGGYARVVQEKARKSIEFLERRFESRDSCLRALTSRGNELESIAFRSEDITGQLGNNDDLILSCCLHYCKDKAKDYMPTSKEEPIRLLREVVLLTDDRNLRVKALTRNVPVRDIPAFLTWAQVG
UniProt P55104: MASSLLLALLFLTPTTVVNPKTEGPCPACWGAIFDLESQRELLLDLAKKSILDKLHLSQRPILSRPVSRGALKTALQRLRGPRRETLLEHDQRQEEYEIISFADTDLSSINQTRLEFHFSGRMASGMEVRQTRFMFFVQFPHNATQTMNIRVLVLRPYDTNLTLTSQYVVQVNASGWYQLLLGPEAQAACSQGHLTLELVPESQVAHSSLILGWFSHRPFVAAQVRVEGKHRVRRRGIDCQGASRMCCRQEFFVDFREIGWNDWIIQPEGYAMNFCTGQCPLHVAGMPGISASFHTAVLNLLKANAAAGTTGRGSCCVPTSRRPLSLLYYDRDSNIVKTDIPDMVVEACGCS
UniProt P63073, whole entry: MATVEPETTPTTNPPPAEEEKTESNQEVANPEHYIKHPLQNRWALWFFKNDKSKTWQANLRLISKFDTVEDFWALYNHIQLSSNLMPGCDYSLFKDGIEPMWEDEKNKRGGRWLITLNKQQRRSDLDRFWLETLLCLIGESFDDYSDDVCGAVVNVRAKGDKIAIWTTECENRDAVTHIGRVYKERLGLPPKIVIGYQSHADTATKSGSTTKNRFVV

The other results are listed elsewhere or left out. Most entries show no effect beyond the scatter of the controls.

Take “UniProt P58854 (peptide sequence: DAHSTPYYYAR, peptide start residue: 125)”: the log2 fold change was -0.921. Next, “UniProt P57110 (peptide sequence: RFVSEAR, peptide start residue: 228)”: -0.225; “UniProt P62869 (peptide sequence: ESSTVFELK, peptide start residue: 20)”: -0.592; “UniProt P62862 (peptide sequence: RFVNVVPTFGK, peptide start residue: 115)”: 0.0928. Next, “UniProt P55088 (peptide sequence: GSYMEVEDNR, peptide start residue: 275)”: -0.117; “UniProt P60334 (peptide sequence: NLVDQGNGK, peptide start residue: 61)”: -0.299; “UniProt P63002 (peptide sequence: HSGSSHLPQQLK, peptide start residue: 8)”: -0.0281. Next, “UniProt P54254 (peptide sequence: HVVVHPSPADYSSR, peptide start residue: 336)”: -0.193. As for “UniProt P62484 (peptide sequence: RMESSINHISQTVDIHKEK, peptide start residue: 85)”, the log2 fold change is -0.463. Regarding “UniProt P58043 (peptide sequence: LLAHRPWLITK, peptide start residue: 161)”, the log2 fold change was -0.0537. Next, “UniProt P63034 (peptide sequence: MELENIR, peptide start residue: 17)”: 0.079; “UniProt P58059 (peptide sequence: YYEKPCR, peptide start residue: 44)”: -0.297. Next, “UniProt P62500 (peptide sequence: SHLMYAVREEVEVLKEQIK, peptide start residue: 688)”: -0.17; “UniProt P58390 (peptide sequence: VKNAAANVLR, peptide start residue: 679)”: -0.321; “UniProt P54751 (peptide sequence: VSYWFDQR, peptide start residue: 67)”: 0.315. Turning to “UniProt P57722 (peptide sequence: IANATEGSSER, peptide start residue: 329)”, the log2 fold change is -0.315.

In the case of “UniProt P62046 (peptide sequence: DRELDIAMIEQLR, peptide start residue: 431)”, the log2 fold change was -0.0805. For “UniProt P54923 (peptide sequence: GLMEVLPEAK, peptide start residue: 199)” the value was 0.0338; for “UniProt P59997 (peptide sequence: ELHGTSIVPK, peptide start residue: 809)”, 0.362; for “UniProt P61922 (peptide sequence: FWAHEHWGLDDPADVMTFSK, peptide start residue: 338)”, -0.39.

In the case of “UniProt P56384 (peptide sequence: VAYRPISASVLSRPETR, peptide start residue: 20)”, the log2 fold change was 0.695. Next, “UniProt P56390 (peptide sequence: THLMSEEEWR, peptide start residue: 35)”: 0.0404; “UniProt P54320 (peptide sequence: VAGAAPPAAAAAAAK, peptide start residue: 705)”: 0.256. In the case of “UniProt P59913 (peptide sequence: GIPQRAPPK, peptide start residue: 267)”, the log2 fold change was -0.438. Next, “UniProt P63030 (peptide sequence: LINYEMSK, peptide start residue: 98)”: -0.215; “UniProt P63101 (peptide sequence: YLAEVAAGDDKK, peptide start residue: 128)”: 0.106. As for “UniProt P54822 (peptide sequence: FLEEEVRPLLKPYGNEMAVK, peptide start residue: 460)”, the log2 fold change was -0.148.

Turning to “UniProt P61406 (peptide sequence: VADDSVPGKPGSVKR, peptide start residue: 228)”, the log2 fold change worked out at 0.462.

“UniProt P58252 (peptide sequence: YFDPANGK, peptide start residue: 265)”: the log2 fold change is -0.533. Next, “UniProt P55104 (peptide sequence: GSCCVPTSR, peptide start residue: 314)”: -0.749; “UniProt P63073 (peptide sequence: WALWFFK, peptide start residue: 43)”: -1.38.

(Values after the supplement of paper PMC12819154, “High-throughput peptide-centric local stability assay extends protein–ligand identification to membrane proteins, tissues and bacteria” (Nature Structural & Molecular Biology, 2025).)
